Measurements as given in article PMC8633803.

Assays:
[1] = molecular target: T1, FLAG-tagged human R15B 639–713 (human) (UniProt Q5SWA1); assay: co-IP; FLAG-R15 constructs transfected into HEK 293T; lysates (50 mM Tris-HCl pH 7.4, 10 mM NaCl, 100 mM KCl, 0.1 µM CaCl2, 0.5 mM MgCl2, 0.5 mM TCEP) incubated overnight at 4°C with anti-FLAG M2 magnetic beads, washed three times, eluted by boiling in LDS; immunoblots for endogenous P-eIF2α, total eIF2α, PP1, actin
T1 sequence: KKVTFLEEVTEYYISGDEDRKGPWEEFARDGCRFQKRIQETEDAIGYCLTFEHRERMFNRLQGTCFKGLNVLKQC

[2] = molecular target: T2, FLAG-tagged human R15B 1–340 (human) (UniProt Q5SWA1); assay: as above
T2 sequence: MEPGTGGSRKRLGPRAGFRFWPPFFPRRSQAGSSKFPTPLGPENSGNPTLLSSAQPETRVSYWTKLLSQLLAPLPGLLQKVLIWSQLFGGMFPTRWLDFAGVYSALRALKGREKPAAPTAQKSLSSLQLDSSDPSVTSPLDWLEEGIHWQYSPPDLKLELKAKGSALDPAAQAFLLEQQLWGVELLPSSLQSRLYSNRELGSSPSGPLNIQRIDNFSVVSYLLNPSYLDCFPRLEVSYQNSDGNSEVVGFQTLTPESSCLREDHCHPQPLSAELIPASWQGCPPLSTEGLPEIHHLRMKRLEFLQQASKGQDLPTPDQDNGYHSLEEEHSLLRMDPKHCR

binding [1]: binds
binding [2]: no binding
Substance: PP1 (catalytic subunit of protein phosphatase 1) (human (endogenous in HEK 293T)) (enzyme)

No constants are given. Whether binding was seen depends on the method and setting. Binding seen in cells or lysates may run through a third protein. For some assays here: Binding can be weak; no strength is given. Where a sequence is shown, tags or fusion partners need not be part of it.
